Results are given in words; binding and its absence hold for the method and conditions named. In cells and extracts the contact can be indirect. Some binding calls cover weakened binding; strength is not graded here. For some assays here: Tags and fused reporters may be left off the sequences shown.

By UniProt entry, the sequences of proteins in these tests, tags left out.
UniProt P25490: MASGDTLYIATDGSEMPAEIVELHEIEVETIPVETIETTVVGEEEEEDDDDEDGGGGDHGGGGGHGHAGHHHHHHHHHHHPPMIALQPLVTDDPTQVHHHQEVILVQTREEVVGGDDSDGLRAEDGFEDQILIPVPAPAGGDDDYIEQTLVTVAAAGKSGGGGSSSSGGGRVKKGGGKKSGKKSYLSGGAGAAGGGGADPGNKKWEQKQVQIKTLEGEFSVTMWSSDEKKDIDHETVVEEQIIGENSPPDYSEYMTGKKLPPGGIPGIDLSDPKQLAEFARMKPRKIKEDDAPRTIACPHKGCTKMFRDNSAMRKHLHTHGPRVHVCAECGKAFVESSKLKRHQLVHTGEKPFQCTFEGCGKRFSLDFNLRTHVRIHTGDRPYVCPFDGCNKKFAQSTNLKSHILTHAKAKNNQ

From article PMC7000404 come the findings set out here.

Assay [1] concerns the target T1, USP21 (human (endogenous in A549)) (UniProt Q9UK80).
T1 sequence: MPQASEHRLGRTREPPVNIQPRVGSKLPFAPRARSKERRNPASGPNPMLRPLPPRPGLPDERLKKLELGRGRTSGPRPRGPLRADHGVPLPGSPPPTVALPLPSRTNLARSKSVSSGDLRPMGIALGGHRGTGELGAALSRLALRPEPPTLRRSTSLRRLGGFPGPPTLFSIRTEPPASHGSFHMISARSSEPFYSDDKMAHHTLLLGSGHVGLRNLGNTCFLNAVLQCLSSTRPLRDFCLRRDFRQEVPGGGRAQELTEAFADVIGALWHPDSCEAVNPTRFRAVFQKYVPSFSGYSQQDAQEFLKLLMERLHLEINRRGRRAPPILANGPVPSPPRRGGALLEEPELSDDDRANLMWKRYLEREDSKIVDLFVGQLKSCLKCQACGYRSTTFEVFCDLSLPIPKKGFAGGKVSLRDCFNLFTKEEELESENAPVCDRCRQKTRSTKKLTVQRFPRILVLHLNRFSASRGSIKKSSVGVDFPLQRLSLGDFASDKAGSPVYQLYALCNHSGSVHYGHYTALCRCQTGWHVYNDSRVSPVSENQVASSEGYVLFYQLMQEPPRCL
Kind of assay: co-IP; A549 cell lysates in RIPA buffer with 10 mM N-ethylmaleimide and protease and phosphatase inhibitors; IP with anti-YY1 or anti-USP21 antibody and protein A-agarose beads, 1 h at 4 °C; western blot.

Assay [2] concerns the target T2, Recombinant glutathione S-transferase-USP21 (GST-USP21) (UniProt Q9UK80).
T2 sequence: T1 sequence
In words: pull-down; GST-USP21 from E. coli on glutathione Sepharose 4B beads, incubated with lysates of transfected HEK293T cells; washed three times with IP lysis buffer; western blot; only the target purified. For orientation: In western blotting, separated proteins are transferred to a membrane and probed.

Turning to “Yin Yang-1 (YY1) (from UniProt P25490 1-414)”, in assay [1], the binding entry was “binds”. As for “YY1 in lysates of transfected HEK293T cells (from UniProt P25490 1-414)”, the binding entry in assay [2] is given as “binds”.
